# Measured values: patent US20030176499A1, “Use of fibrates for the preparation of a medicament useful in the treatment of congestive heart failure” (priority 2003, published 2003)
# At least one compound was matched to its structure with a doubt left.
# System: male Wistar rats with left ventricular hypertrophy induced by constriction of the abdominal aorta
# Assay: Evaluation of cardiac function in rats with aortic constriction (left ventricular catheter)
# Assay type: in vivo, rat
# Conditions: animals with aortic constriction, treatment with clofibrate
# Procedure: Animal-housed male Wistar rats weighing 100-120 g were used: 5 per cage (cage size: 425 mm×266 mm×180 mm with a sawdust litter) at a temperature of […] and 50±15% humidity with a 12/12 h light/darkness cycle and with 15-20 air changes/hour. The animals were fed with LP ALTROMIN (REIPER) feed and spring water ad libitum
# Left ventricular hypertrophy was induced in rats anaesthetised with Nembutal sodium, by means of constriction of the abdominal aorta with a clip (Ø0.8 mm) placed in the abdominal aorta between the diaphragm and the renal branches; one group of animals, which was then used as a control group, underwent the same operation but was not submitted to constriction of the aorta (shams).
# The animals were thus randomly assigned to the following groups:
# CLO: operated on with aortic constriction and treated for 12 weeks, from the day after the operation with clofibrate 0.2% in the feed (60-100 mg/kg/day (n=11).
# At the end of treatment, cardiac function was evaluated, in the animals anaesthetised with Nembutal sodium, by means of a polyethylene catheter inserted in the left ventricle via the carotid and connected up to a pressure transducer (Statham p23 XL) and to an amplifier (Biomedica Mangoni bm 61).
# The parameters recorded were: heart rate, ventricular systolic and end-diastolic pressure, and the positive and negative derivatives of ventricular pressure, which were recorded on a personal computer by means of a special data acquisition system (IDAS). The measurements were taken for a period of 30 minutes.
# The data were expressed as mean ± standard deviation and were compared using Student's t-test for independent data. Differences with P<0.05 were regarded as statistically significant.
structure (smiles),measurement,setting,value
"CCOC(=O)C(C)(C)Oc1ccc(Cl)cc1 [CLO, clofibrate]",effect on end-diastolic pressure (in words),,normalises
same,effect on negative derivative of ventricular pressure (in words),,significantly improved
same,effect on positive derivative of ventricular pressure (in words),,significantly improved
same,effect on pressure developed in relation to ventricular weight (in words),,significantly improved
same,effect on left ventricular systolic pressure (in words),vs controls,further increase
